The results in this text go back to patent US11680049B2, “Certain (2S)-N-[(1S)-1-cyano-2-phenylethyl]-1,4-oxazepane-2-carboxamides as dipeptidyl peptidase 1 inhibitors” (AstraZeneca AB, priority 2014, dated 2023).

This series is described as follows: Test B: In-vitro competitive aortic tissue binding assay. On the set-up: species or system Han Wistar rat. The settings on record: 100 μM compound pre-incubated overnight with rat aortic homogenate, competition with 14C-labelled WO2010/128324 Ex. 3, categories: strong binder, medium binder, no binder.
Take `Cn1c(=O)oc2ccc(-c3ccc(C[C@@H](C#N)NC(=O)[C@@H]4CNCCCO4)cc3)cc21` [Example 2, (2S)—N-{(1S)-1-Cyano-2-[4-(3-methyl-2-oxo-2,3-dihydro-1,3-benzoxazol-5-yl)phenyl]ethyl}-1,4-oxazepane-2-carboxamide]: the “Aortic Tissue Binding” value is listed as “No binder”.

On to `N#Cc1ccc(-c2ccc(C[C@@H](C#N)NC(=O)[C@@H]3CCCCN3)cc2)cc1` [WO2009/074829 (Example 24)], for which the “Aortic Tissue Binding” value is on record as “Binder”.

Regarding `Cn1c(=O)oc2ccc(-c3ccc(C[C@@H](C#N)NC(=O)[C@@H]4CCCCN4)cc3)cc21` [WO2009/074829 (Example 96)], the “Aortic Tissue Binding” value is listed as “Medium binder”.

In the case of `N#Cc1ccc(-c2ccc(C[C@@H](C#N)NC(=O)C3(N)CCOCC3)cc2)cc1` [WO2010/128324 (Ex. 3), 4-amino-N-[(1S)-1-cyano-2-(4′-cyanobiphenyl-4-yl)ethyl]tetrahydro-2H-pyran-4-carboxamide], the “Aortic Tissue Binding” value is listed as “Strong binder (reference)”.

`Cn1c(=O)oc2ccc(-c3ccc(C[C@@H](C#N)NC(=O)C4(N)CCOCC4)cc3)cc21` [WO2010/128324 (Example 17)]: the “Aortic Tissue Binding” value is recorded as “Strong binder”.
